Results reported in patent publication US20070295251A1, “EPSP SYNTHASES: COMPOSITIONS AND METHODS OF USE” (Athenix Corporation, priority 2006, published 2007).

System: transgenic maize plants
Experiment: Transgenic maize plants sprayed with 14 mM glyphosate, resistance scored after two weeks
Type: in vivo
Conditions: Western blot

Molecule | Expression of EPSPS observed | Expression of EPSPS observed (listed as GRG1 (EVO6))
GRG1(EVO5): GRG1 Q-loop variant from Library 4 (SEQ ID NO:56) (protein, GRG1 variant - GRG1(EVO5)) MKVTIQPGDLTGIIQSPASKSSMQRACAAALVAKGISEIINPGHSNDDKAARDIVSRLGARLEDQPDGSLQITSEGVKPVAPFIECGESGLSSRIFTPLVALSKEEVTIKGSGSLVTRPMDFFDEILPHLGVKVKSNQGKLPLVIQGPLKPADVTVDGSLSSQFLTGLLLAYAAADASDVAIKVTNLKSRPYIDLTLDVMKRFGLKTPENRNYEEFYFKAGNVYDETKMQRYTVEGDWSGGAFLLVAGAIAGPITVRGLDIASTQADKAIVQALMSANAGIAIDAKEIKLHPADLNAFEFDATDCPDLFPPLVALASYCKGETKIKGVSRLAHKESDRGLTLQDEFGKMGVEIHLEGDLMRVIGGKGVKGAEVSSRHDHRIAMACAVAALKAVGETTIEHAEAVNKSYPDFYSDLKQLGGVVSLNHQFNFS | expression and YES | 
GRG1(EVO6): GRG1(EVO5) with N186 to K change (SEQ ID NO:57) (protein, GRG1 variant - GRG1(EVO6)) MKVTIQPGDLTGIIQSPASKSSMQRACAAALVAKGISEIINPGHSNDDKAARDIVSRLGARLEDQPDGSLQITSEGVKPVAPFIECGESGLSSRIFTPLVALSKEEVTIKGSGSLVTRPMDFFDEILPHLGVKVKSNQGKLPLVIQGPLKPADVTVDGSLSSQFLTGLLLAYAAADASDVAIKVTKLKSRPYIDLTLDVMKRFGLKTPENRNYEEFYFKAGNVYDETKMQRYTVEGDWSGGAFLLVAGAIAGPITVRGLDIASTQADKAIVQALMSANAGIAIDAKEIKLHPADLNAFEFDATDCPDLFPPLVALASYCKGETKIKGVSRLAHKESDRGLTLQDEFGKMGVEIHLEGDLMRVIGGKGVKGAEVSSRHDHRIAMACAVAALKAVGETTIEHAEAVNKSYPDFYSDLKQLGGVVSLNHQFNFS | YES | expression
